The record followed here is the supplement of paper PMC6411743.

This assay deals with T1, UniProt Q8N0U8 and related entries.
T1 sequence (whole entry): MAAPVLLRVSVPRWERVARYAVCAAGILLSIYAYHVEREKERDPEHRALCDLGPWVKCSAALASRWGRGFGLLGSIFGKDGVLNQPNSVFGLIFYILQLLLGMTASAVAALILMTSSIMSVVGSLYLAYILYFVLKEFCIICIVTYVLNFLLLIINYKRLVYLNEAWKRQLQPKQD
The assay is described as follows: NP40-soluble protein abundance relative to vehicle (solubility fold change) (ratio); higher = more soluble protein in presence of ATP. In short, it runs like this:
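Data come from three independent experiments in which Dounce-homogenised Jurkat crude lysate was treated at eight concentrations from 0.1 to 10 mM. Treatment ran 10 min at room temperature and then 3 min at 37 °C, after which 0.8% NP40 and benzonase were added for 60 min at 4 °C before ultracentrifugation. The supernatant underwent TMT labelling and LC-MS/MS, and vsn-normalised intensities were expressed as fold change against the detergent-processed vehicle in each replicate.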

± gives the standard deviation of the averaged measurements. The entries are a selection whose mix differs from that of the whole data set.

With `Nc1ncnc2c1ncn2[C@@H]1O[C@H](COP(=O)(O)OP(=O)(O)OP(=O)(O)O)[C@@H](O)[C@H]1O` [adenosine triphosphate], the NP40-soluble protein abundance (concentration: 1mM) was 0.873 ± 0.077; the NP40-soluble protein abundance (concentration: 2mM) turned out to be 0.969 ± 0.066; the NP40-soluble protein abundance (concentration: 4mM) turned out to be 1.04 ± 0.1; the NP40-soluble protein abundance (concentration: 6mM) stood at 0.837 ± 0.1; the NP40-soluble protein abundance (concentration: 8mM) turned out to be 0.925 ± 0.027; the NP40-soluble protein abundance (concentration: 10mM) is 0.976 ± 0.029.
